Results from paper PMC8799735.
These are yes or no findings as the source states them, for the method shown. In cells and extracts the contact can be indirect. Some binding calls cover weakened binding; strength is not graded here.

Sequences of proteins named here, by UniProt entry; tags and fusion partners are left off.
UniProt Q00266: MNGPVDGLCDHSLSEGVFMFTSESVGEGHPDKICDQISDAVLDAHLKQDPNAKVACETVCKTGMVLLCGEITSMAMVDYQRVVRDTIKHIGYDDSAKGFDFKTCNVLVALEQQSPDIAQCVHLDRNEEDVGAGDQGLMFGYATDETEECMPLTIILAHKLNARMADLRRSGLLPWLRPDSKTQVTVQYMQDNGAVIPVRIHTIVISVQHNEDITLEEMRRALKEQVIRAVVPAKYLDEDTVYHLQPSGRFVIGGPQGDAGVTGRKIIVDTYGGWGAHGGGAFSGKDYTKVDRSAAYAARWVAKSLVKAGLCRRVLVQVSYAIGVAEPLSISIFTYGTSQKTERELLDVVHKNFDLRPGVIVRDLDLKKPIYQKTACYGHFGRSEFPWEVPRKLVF

Target: Methionine adenosyltransferase α1 (MATα1), endogenous human (human (endogenous in human hepatocytes and liver)) (UniProt Q00266)
Assay: co-IP; human normal liver lysates; IP with anti-MATα1 antibody, western blot against CPT1α, MCAD and SDHα

binding: binds
B1: MCAD, endogenous human (protein, UniProt P11310 26-421)
chain: KANRQREPGLGFSFEFTEQQKEFQATARKFAREEIIPVAAEYDKTGEYPVPLIRRAWELGLMNTHIPENCGGLGLGTFDACLISEELAYGCTGVQTAIEGNSLGQMPIIIAGNDQQKKKYLGRMTEEPLMCAYCVTEPGAGSDVAGIKTKAEKKGDEYIINGQKMWITNGGKANWYFLLARSDPDPKAPANKAFTGFIVEADTPGIQIGRKELNMGQRCSDTRGIVFEDVKVPKENVLIGDGAGFKVAMGAFDKTRPVVAAGAVGLAQRALDEATKYALERKTFGKLLVEHQAISFMLAEMAMKVELARMSYQRAAWEVDSGRRNTYYASIAKAFAGDIANQLATDAVQILGGNGFNTEYPVEKLMRDAKIYQIYEGTSQIQRLIVAREHIDKYKN
